This assay has as its target programmed death-ligand 1 (PD-L1) (UniProt Q9NZQ7). The assay can be described thus: co-IP; endogenous immunoprecipitation from cell lysate; lysis buffer 10 mM Tris-HCl pH 7.4, 150 mM NaCl, 5 mM NaF, 10 mM DTT, 5% glycerol; 5 ug of the indicated antibodies or isotype control IgG-conjugated beads, overnight at 4 °C; western blot.

No constants are given. Whether binding was seen depends on the method and setting. Binding seen in cells or lysates may run through a third protein. Some entries that bind do so weakly or less than the wild type.

Turning to “USP20 (from UniProt Q9Y2K6 1-914) (enzyme)”, the binding result is recorded as “binds”.

Source of the values: publication PMC9892521.
